Measurements taken from the supplement of paper PMC10849652.
The list shows a part of the results.

Sequences of proteins named here, by UniProt entry; tags and fusion partners are left off. A change or cut given only in a name is not applied to a line headed by its entry.
UniProt O60934: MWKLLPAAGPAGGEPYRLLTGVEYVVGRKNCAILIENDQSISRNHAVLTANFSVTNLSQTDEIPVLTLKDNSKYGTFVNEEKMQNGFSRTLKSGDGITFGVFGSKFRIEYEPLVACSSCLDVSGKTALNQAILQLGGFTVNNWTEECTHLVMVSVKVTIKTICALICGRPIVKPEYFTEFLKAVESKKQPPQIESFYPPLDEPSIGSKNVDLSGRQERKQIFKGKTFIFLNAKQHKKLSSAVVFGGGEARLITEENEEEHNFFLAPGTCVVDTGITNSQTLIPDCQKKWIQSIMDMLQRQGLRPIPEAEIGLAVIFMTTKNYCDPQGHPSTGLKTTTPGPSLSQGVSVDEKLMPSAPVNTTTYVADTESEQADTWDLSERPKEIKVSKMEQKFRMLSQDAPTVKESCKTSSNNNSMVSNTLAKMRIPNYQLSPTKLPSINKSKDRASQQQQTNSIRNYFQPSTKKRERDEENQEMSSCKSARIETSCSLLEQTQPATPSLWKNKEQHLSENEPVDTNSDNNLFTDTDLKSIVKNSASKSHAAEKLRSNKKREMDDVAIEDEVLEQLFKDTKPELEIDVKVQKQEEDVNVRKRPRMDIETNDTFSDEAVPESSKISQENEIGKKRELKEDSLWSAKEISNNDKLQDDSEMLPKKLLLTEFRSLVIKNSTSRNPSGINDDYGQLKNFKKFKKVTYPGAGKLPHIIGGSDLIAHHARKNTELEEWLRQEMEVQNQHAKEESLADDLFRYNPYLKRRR
UniProt O75376, whole entry, looked up: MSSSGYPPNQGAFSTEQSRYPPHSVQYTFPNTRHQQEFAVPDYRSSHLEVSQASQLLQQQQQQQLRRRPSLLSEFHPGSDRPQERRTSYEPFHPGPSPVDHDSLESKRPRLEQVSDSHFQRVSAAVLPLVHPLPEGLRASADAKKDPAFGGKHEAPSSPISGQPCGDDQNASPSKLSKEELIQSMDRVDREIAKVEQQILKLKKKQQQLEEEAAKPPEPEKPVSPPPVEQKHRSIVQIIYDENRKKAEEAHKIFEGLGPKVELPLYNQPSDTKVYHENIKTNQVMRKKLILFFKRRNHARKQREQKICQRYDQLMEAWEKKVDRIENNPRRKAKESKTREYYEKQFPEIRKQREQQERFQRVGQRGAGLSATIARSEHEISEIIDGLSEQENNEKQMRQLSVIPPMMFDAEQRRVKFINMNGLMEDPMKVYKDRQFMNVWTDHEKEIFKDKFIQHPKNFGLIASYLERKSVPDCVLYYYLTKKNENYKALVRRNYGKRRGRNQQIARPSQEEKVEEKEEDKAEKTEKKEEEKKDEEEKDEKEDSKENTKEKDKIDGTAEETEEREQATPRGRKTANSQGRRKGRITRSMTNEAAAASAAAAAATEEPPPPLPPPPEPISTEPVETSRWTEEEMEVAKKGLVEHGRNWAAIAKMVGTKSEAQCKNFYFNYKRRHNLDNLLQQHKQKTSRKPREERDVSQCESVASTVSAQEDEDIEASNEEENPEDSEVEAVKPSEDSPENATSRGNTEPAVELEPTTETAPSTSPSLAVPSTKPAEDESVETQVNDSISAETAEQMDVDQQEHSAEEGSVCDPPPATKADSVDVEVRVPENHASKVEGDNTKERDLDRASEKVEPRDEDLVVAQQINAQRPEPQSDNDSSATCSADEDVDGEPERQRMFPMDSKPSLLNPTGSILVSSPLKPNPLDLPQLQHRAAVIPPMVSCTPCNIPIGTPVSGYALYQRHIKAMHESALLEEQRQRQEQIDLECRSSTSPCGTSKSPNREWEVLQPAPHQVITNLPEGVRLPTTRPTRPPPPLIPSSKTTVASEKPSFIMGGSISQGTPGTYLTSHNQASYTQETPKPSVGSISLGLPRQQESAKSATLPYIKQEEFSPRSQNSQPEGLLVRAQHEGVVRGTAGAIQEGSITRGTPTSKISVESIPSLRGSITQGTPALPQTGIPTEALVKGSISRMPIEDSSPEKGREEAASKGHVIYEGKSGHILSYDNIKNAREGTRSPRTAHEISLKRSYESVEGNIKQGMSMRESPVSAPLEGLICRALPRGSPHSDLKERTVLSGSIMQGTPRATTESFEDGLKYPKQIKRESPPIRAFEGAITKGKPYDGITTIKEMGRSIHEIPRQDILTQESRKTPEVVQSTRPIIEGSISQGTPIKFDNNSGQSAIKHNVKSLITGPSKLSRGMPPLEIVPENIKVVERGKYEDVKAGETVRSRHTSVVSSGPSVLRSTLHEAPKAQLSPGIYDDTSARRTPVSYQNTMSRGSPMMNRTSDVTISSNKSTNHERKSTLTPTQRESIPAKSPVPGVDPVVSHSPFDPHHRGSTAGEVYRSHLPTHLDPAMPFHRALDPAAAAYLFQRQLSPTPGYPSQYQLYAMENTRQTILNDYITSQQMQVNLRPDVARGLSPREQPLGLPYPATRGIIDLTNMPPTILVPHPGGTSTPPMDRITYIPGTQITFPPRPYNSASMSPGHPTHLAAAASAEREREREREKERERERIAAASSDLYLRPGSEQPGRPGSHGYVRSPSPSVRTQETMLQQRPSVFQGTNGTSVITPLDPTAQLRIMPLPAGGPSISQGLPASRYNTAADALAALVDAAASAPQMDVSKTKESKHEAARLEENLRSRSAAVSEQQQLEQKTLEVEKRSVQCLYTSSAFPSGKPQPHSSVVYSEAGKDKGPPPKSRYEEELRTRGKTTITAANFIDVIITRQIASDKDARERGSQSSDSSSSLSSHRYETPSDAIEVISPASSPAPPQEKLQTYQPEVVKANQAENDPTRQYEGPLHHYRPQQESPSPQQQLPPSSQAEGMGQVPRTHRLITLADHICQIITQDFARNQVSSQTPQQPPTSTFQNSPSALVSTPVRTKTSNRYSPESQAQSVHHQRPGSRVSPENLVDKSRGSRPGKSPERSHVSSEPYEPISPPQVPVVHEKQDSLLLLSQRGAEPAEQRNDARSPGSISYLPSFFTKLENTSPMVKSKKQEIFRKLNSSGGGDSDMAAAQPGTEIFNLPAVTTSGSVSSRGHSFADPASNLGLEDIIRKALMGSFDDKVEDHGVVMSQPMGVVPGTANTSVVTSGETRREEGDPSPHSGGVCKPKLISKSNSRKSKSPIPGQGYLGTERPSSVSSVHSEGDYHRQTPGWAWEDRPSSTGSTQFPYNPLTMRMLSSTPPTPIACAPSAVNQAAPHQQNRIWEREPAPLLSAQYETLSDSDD
UniProt Q02083: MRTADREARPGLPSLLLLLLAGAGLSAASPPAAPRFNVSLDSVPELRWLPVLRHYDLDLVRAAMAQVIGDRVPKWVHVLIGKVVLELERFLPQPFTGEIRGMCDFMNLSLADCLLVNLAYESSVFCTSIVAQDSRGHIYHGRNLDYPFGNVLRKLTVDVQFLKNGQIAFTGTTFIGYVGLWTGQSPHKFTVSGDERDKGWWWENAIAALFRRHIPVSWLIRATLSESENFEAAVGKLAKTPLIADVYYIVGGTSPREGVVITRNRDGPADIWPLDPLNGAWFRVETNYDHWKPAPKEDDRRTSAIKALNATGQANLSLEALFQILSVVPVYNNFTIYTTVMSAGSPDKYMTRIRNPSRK
UniProt O43639, whole entry, looked up: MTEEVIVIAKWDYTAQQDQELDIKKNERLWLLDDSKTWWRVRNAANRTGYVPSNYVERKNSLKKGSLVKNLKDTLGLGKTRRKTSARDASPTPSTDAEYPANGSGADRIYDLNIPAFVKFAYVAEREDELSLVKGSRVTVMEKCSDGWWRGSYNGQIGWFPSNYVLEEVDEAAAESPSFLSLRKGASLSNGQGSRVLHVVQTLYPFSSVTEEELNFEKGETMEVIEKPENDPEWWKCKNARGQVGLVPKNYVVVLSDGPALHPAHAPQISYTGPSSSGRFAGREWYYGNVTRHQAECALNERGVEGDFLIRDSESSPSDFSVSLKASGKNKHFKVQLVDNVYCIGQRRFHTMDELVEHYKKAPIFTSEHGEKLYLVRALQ
UniProt Q96PU5: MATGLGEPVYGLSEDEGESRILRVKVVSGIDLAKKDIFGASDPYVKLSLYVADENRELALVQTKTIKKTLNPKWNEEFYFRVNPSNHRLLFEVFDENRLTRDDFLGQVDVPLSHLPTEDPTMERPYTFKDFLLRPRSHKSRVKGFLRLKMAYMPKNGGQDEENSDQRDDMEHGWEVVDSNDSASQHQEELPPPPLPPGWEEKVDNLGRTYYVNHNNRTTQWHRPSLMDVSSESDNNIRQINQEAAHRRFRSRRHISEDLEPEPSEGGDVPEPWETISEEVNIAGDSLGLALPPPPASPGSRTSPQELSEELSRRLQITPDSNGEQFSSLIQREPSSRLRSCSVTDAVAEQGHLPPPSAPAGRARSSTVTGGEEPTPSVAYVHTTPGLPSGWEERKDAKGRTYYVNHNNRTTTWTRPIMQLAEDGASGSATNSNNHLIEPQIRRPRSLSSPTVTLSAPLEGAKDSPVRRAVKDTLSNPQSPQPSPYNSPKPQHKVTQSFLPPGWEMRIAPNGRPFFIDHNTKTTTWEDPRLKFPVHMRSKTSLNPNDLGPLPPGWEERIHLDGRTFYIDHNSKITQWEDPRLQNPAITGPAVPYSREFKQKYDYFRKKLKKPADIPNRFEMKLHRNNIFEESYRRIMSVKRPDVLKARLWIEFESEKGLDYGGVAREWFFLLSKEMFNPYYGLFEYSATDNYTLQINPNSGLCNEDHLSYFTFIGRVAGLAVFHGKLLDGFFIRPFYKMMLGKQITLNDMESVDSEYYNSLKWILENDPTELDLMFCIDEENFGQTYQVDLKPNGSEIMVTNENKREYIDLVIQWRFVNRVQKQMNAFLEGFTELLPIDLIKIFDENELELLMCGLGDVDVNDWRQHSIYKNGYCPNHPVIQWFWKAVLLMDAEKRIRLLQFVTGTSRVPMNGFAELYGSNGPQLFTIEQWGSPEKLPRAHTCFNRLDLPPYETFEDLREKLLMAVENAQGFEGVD
UniProt Q8WUY8: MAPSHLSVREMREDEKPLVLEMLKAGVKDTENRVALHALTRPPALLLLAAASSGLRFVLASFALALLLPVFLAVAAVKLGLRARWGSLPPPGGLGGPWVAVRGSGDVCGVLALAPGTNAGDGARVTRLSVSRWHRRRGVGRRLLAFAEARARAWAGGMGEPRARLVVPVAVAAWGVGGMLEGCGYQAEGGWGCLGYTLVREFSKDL
UniProt Q4G0T1: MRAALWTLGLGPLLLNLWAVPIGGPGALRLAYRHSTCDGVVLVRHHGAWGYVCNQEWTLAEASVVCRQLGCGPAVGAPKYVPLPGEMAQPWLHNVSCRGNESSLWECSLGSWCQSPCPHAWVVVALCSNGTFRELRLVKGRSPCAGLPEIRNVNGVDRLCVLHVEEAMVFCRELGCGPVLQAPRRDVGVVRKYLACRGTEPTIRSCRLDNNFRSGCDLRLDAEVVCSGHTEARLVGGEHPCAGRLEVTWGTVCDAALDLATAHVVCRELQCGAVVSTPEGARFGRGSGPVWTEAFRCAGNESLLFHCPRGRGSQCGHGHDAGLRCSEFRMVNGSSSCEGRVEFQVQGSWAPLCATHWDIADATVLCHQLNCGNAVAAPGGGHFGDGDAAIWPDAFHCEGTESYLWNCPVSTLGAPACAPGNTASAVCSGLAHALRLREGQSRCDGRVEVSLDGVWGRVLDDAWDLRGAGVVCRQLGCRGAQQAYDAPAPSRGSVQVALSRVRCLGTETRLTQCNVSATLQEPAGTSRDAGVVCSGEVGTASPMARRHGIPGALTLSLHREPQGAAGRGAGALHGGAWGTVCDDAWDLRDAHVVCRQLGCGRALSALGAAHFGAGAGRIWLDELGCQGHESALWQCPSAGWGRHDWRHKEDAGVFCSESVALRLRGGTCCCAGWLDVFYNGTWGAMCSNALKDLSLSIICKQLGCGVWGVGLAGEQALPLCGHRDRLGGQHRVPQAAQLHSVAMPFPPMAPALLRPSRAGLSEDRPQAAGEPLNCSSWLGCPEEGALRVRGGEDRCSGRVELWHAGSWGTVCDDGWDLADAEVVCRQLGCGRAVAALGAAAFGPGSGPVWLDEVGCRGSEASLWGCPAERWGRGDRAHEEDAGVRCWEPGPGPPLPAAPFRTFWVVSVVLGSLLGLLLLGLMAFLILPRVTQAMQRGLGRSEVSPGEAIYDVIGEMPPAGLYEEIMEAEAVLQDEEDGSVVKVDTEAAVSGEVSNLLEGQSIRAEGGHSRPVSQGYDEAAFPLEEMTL

Experiments:
Test in all cases: log2 fold change, soluble protein after heating vs DMSO (PISA); higher = thermal stabilisation; K562 cells, 10 uM, 30 min; active = over 0.2 and 3.5 SD of the protein, either way, in both replicates (recomputed)
[1] = compound: COC1=CC=C(C=C1)CN2C=CC3=C2C=C(C=C3)C(=O)NO
Outline: (§1)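 K562 cells at 2×10^6 cells/mL were exposed to 10 μM compound for 30 min, then aliquots were heated for 3 min across 48°C-58°C, pooled, and extracted in PBS containing 0.5% NP-40 at 4°C. The supernatant after 21,000xg for 90 min was taken as soluble protein and measured by TMTpro 16plex LC-MS/MS with channel sums equalised. Thermal stability is reported relative to control samples, with values from duplicates. Fold changes are given on a log2 scale.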

[2] = compound: CON(C)C(=O)N1N=C(c2cc(F)ccc2F)S[C@@]1(CCCN)c1ccccc1 [filanesib]
Outline: as §1

[3] = compound: CO[C@H]1C[C@@H]2CC[C@@H](C)[C@@](O)(O2)C(=O)C(=O)N2CCCC[C@H]2C(=O)O[C@H]([C@H](C)C[C@@H]2CC[C@H](n3cnnn3)[C@H](OC)C2)CC(=O)[C@H](C)/C=C(\C)[C@@H](O)[C@@H](OC)C(=O)[C@H](C)C[C@H](C)/C=C/C=C/C=C/1C [zotarolimus]
Outline: as §1

[4] = compound: COc1cc(C(=O)O)ccc1NC(=O)[C@@H]1N[C@@H](CC(C)(C)C)[C@](C#N)(c2ccc(Cl)cc2F)[C@H]1c1cccc(Cl)c1F [idasanutlin]
Outline: as §1

[5] = compound: COc1cc(Nc2ncc3c(n2)-c2ccc(Cl)cc2C(c2c(F)cccc2OC)=NC3)ccc1C(=O)O [alisertib]
Outline: as §1

[6] = compound: COc1cc2nc(-c3cc(F)ccc3O)nc(N[C@@H]3CNC[C@H]3C(C)(C)O)c2cc1OC
Outline: as §1

[7] = compound: COc1cc2ncnc(Nc3ccc(F)c(Cl)c3)c2cc1OCCCN1CCOCC1 [gefitinib]
Outline: as §1

[8] = compound: COc1cccc2cc(-c3nc([C@H]4CC[C@H](C(=O)O)CC4)n4ncnc(N)c34)[nH]c12
Outline: as §1

[9] = compound: CS(=O)(=O)CCNCc1ccc(-c2ccc3ncnc(Nc4ccc(OCc5cccc(F)c5)c(Cl)c4)c3c2)o1 [lapatinib]
Outline: as §1

[10] = compound: CS(=O)(=O)N1CCN(Cc2cc3nc(-c4cccc5[nH]ncc45)nc(N4CCOCC4)c3s2)CC1 [pictilisib]
Outline: as §1

[11] = compound: CS(=O)(=O)c1ccc(-c2cnc(N)c(C(=O)Nc3ccccc3)n2)cc1
Outline: as §1

[12] = compound: C[C@@H](Oc1cc(-c2cnn(C3CCNCC3)c2)cnc1N)c1c(Cl)ccc(F)c1Cl [crizotinib]
Outline: as §1

[13] = compound: C[C@@H]1COCCN1C2=NC(=NC(=C2)C3(CC3)S(=O)(=O)C)C4=C5C=CNC5=CC=C4
Outline: as §1

[14] = compound: C[C@H](C1=CC=C(C=C1)C(=O)NC2=C3C=CNC3=NC=C2)N
Outline: as §1

[15] = compound: Cc1cc(Nc2cc(CN3CCOCC3)c3nc(C)c(Cc4ccc(Cl)cc4F)n3n2)n[nH]1 [gandotinib]
Outline: as §1

[16] = compound: Cc1cc(SCc2sc(-c3ccc(C(F)(F)F)cc3)nc2C)ccc1OCC(=O)O
Outline: as §1

[17] = compound: Cc1ccc(-n2nc(C(C)(C)C)cc2NC(=O)Nc2ccc(OCCN3CCOCC3)c3ccccc23)cc1 [doramapimod]
Outline: as §1

[18] = compound: Cc1ccc(C(=O)N(CCCN)[C@@H](c2nc3cc(Cl)ccc3c(=O)n2Cc2ccccc2)C(C)C)cc1 [ispinesib]
Outline: as §1

[19] = compound: Cc1cc(Nc2cc(N3CCN(C)CC3)nc(Sc3ccc(NC(=O)C4CC4)cc3)n2)n[nH]1 [tozasertib]
Outline: as §1

[20] = compound: C[C@H](Nc1ncnc2nc[nH]c12)c1cc2cccc(Cl)c2c(=O)n1-c1ccccc1 [duvelisib]
Outline: as §1

Measured: log2 fold change

NBN (UniProt O60934)
inactive: [1] -0.039 | [2] -0.007 | [3] 0.039 | [4] -0.053 | [5] 0.057 | [6] 0.028 | [7] 0.03 | [8] -0.019 | [9] 0.008 | [10] -0.035 | [11] 0.02 | [12] 0.009 | [13] 0.038 | [14] -0.063 | [15] -0.069 | [16] 0.116 | [17] -0.004 | [18] 0.008

NA, A0A0B4J2A0
inactive: [1] 0.084 | [2] -0.045 | [3] -0.021 | [4] -0.016 | [5] 0.129 | [6] -0.029 | [7] -0.092 | [8] 0.023 | [9] -0.026 | [10] 0.05 | [11] -0.087 | [12] -0.18 | [13] 0.093 | [14] 0.06 | [15] -0.087 | [16] 0.061 | [17] -0.049 | [18] -0.121

NDUFAB1 (UniProt O14561)
inactive: [1] 0.009 | [2] 0.118 | [3] 0.161 | [4] 0.056 | [5] -0.09 | [7] -0.006 | [8] 0.031 | [10] 0.121 | [11] -0.025 | [12] 0.124 | [13] 0.238 | [14] -0.211 | [15] 0.178 | [19] 0.08 | [17] 0.005 | [18] 0.256

NA, A0A096LPI6
inactive: [1] 0.008 | [2] -0.044 | [3] 0.019 | [4] -0.014 | [5] -0.034 | [6] -0.123 | [7] 0.018 | [8] 0.074 | [9] 0.029 | [10] -0.02 | [11] -0.014 | [12] 0.079 | [13] 0.03 | [14] -0.015 | [15] 0.04 | [16] -0.051 | [17] -0.038 | [18] 0.047

NCOR1 (UniProt O75376)
inactive: [1] -0.07 | [2] 0.078 | [3] 0.069 | [4] 0.004 | [5] -0.086 | [6] 0.128 | [7] -0.018 | [8] 0.064 | [9] -0.119 | [10] 0.135 | [11] -0.078 | [12] 0.017 | [13] 0.15 | [14] -0.064 | [15] -0.007 | [16] -0.061 | [17] -0.044 | [18] 0.004

NAAA (UniProt Q02083)
inactive: [1] 0.035 | [2] -0.037 | [3] 0.214 | [5] 0.113 | [6] 0.011 | [7] 0.106 | [8] 0.141 | [9] 0.053 | [10] -0.042 | [11] 0.04 | [12] -0.189 | [14] -0.176 | [15] 0.127 | [17] 0.014 | [18] 0.191

NCK2 (UniProt O43639)
inactive: [1] -0.062 | [2] -0.089 | [3] 0.052 | [4] 0.04 | [6] 0.267 | [7] 0.084 | [9] -0.257 | [10] -0.046 | [11] 0.043 | [12] -0.12 | [13] 0.08 | [14] 0.205 | [20] 0.062 | [15] -0.09 | [19] -0.037 | [16] 0.197 | [17] -0.021 | [18] -0.208

NEDD4L (UniProt Q96PU5)
inactive: [1] -0.027 | [2] 0.095 | [3] 0.032 | [4] -0.018 | [5] -0.114 | [6] 0.086 | [7] -0.031 | [8] 0.027 | [9] -0.025 | [10] -0.035 | [11] 0.015 | [12] -0.005 | [13] -0.071 | [14] -0.105 | [15] 0.015 | [16] 0.083 | [17] 0.026 | [18] -0.037

NAT14 (UniProt Q8WUY8)
inactive: [1] 0.151 | [2] -0.001 | [3] 0.107 | [4] -0.041 | [5] -0.013 | [6] -0.086 | [7] -0.016 | [8] 0.12 | [9] 0.081 | [11] 0.006 | [12] -0.228 | [13] -0.019 | [14] -0.119 | [16] 0 | [17] -0.02
active: [18] -0.418

NA isoform 3 (UniProt Q4G0T1)
inactive: [1] -0.007 | [2] 0.049 | [3] 0.044 | [4] 0.052 | [5] -0.09 | [6] 0.039 | [7] 0.016 | [8] 0.106 | [9] 0.112 | [11] 0.023 | [12] -0.004 | [14] -0.157 | [16] -0.001 | [17] 0.077 | [18] -0.099
